Results are given in words; binding and its absence hold for the method and conditions named. Binding seen in cells or lysates may run through a third protein. Here binding means that the protein was enriched with, or labelled near, the bait; the list need not be complete.
B1: GLA, human, endogenous (protein, UniProt P06280 32-429)
chain: LDNGLARTPTMGWLHWERFMCNLDCQEEPDSCISEKLFMEMAELMVSEGWKDAGYEYLCIDDCWMAPQRDSEGRLQADPQRFPHGIRQLANYVHSKGLKLGIYADVGNKTCAGFPGSFGYYDIDAQTFADWGVDLLKFDGCYCDSLENLADGYKHMSLALNRTGRSIVYSCEWPLYMWPFQKPNYTEIRQYCNHWRNFADIDDSWKSIKSILDWTSFNQERIVDVAGPGGWNDPDMLVIGNFGLSWNQQVTQMALWAIMAAPLFMSNDLRHISPQAKALLQDKDVIAINQDPLGKQGYQLRQGDNFEVWERPLSGLAWAVAMINRQEIGGPRSYTIAVASLGKGVACNPACFITQLLPVKRKLGFYEWTSRLRSHINPTGTVLLQLENTMQMSLKDLL

Molecular target: SARS-CoV-2 Nsp14 with a C-terminal 2xStrep affinity tag (SARS-CoV-2) (UniProt P0DTD1)
Test: affinity purification with mass spectrometry

Molecule | binding
IMDH2, human, endogenous (from UniProt P12268 1-514) | binds
B1 | binds

Source: PMC9499238, “SIRT5 is a proviral factor that interacts with SARS-CoV-2 Nsp14 protein” (PLoS Pathogens, 2022)
